Assay results reported in patent US20220251223A1.
No constants are given. Whether binding was seen depends on the method and setting. Some binding calls cover weakened binding; strength is not graded here.

Protein sequences, listed by entry. Tags and fused reporters are not part of them.
UniProt P25025: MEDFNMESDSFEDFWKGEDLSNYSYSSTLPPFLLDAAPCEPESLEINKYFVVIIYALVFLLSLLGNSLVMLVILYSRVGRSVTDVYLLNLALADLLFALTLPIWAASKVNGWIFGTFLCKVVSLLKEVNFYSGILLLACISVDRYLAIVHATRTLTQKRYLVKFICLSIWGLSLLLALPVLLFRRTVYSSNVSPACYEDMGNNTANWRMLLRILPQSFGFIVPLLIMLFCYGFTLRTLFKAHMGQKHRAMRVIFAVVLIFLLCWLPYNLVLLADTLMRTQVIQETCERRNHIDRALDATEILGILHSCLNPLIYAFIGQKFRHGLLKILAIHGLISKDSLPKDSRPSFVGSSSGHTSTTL

Key:
[1] = biological target: IL-8R (IL-8RB) expressed on lentivirally transduced HEK 293T cells (UniProt P25025); assay: flow cytometry on HEK 293T cells (FIG. 7 legend)
[2] = biological target: IL-8R (IL-8RB) expressed on lentivirally transduced HEK 293T cells (UniProt P25025); assay: flow cytometry on transduced HEK 293T cells
[3] = biological target: IL-8R (IL-8RB) expressed on lentivirally transduced HEK 293T cells (UniProt P25025); assay: flow cytometry binding titration on IL-6R-/IL-8R+ HEK 293T cells

- binding [1]: binds
- binding [2]: binds
- binding [3]: binds
B1: 10H2 (anti-IL-8RB monoclonal hIgG1 antibody) (antibody, V domains shown)
VH: EVQLVETGGRLVQPKGSLKLSCAVSGITFKTNAMNWVRQAPGKGLEWVARIRTKSYNYATYYADSVKDRFTISRDDSQSILYLQMNNLKTEDTAMYHCVREGRWGQGTLVTVSA
VL: QAVVTQESALTTSPGETVTLTCRSSTGAVTTSNYANWVQEKPDHLFTGLIGGTNNRPPGVPARFSGSLIGDKAALTITGAQIEDEAIYFCALWYSNHLVFGGGTKLTVL
